Measured values published in publication PMC7442798.
Results are given in words; binding and its absence hold for the method and conditions named. Binding seen in cells or lysates may run through a third protein. These calls come from enrichment with a bait or labelling near it, and not all partners need be listed. Tags and fused reporters may be left off the sequences shown.

The chains behind the UniProt entries cited, without tags or fusion partners.
UniProt Q14258: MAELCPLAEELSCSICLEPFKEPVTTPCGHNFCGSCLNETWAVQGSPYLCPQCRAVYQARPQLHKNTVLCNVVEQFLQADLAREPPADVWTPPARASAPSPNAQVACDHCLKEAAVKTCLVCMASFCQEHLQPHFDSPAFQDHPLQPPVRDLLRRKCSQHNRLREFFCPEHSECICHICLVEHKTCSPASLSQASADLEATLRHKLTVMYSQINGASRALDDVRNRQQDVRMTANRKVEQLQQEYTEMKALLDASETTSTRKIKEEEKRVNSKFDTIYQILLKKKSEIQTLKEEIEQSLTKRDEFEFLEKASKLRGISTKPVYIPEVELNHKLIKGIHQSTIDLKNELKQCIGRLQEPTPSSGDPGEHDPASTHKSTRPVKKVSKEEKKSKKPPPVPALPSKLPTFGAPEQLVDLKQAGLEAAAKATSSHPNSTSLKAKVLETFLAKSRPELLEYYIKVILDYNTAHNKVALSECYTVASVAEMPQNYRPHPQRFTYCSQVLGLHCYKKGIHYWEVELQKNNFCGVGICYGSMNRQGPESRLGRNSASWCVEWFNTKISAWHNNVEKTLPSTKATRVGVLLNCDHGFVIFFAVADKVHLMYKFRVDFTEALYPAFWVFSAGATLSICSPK

Target: T1, Flag-tagged wild-type OTUD5 (human) (UniProt Q96G74)
T1 sequence: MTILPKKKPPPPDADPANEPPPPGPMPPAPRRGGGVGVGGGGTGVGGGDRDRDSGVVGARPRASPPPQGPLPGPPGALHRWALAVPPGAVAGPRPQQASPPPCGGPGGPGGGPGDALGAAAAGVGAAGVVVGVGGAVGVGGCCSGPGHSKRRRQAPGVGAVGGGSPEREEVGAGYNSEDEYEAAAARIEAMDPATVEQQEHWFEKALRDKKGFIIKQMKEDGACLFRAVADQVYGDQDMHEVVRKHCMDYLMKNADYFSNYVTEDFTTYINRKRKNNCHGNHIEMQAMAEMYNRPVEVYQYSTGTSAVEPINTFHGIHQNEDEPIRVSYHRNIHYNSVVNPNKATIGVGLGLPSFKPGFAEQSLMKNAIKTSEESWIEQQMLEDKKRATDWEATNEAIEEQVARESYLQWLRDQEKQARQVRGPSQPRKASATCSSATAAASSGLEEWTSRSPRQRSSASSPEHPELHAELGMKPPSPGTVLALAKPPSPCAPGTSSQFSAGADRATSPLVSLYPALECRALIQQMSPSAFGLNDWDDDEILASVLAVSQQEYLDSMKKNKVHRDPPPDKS
Assay: affinity purification with mass spectrometry; nuclear extracts of the stable Flag-OTUD5/Hep3B cell line, Flag M2 immunoprecipitation, LC-MS/MS of the OTUD5-associated proteins

TRIM25 E3 ubiquitin ligase (from UniProt Q14258 1-630)
binding: binds
